These are yes or no findings as the source states them, for the method shown. Some entries that bind do so weakly or less than the wild type. One block for each binder: values may come before it.
Assays:
[1] = molecular target: cynomolgus TIGIT on primary CD8+ T cells (Macaca fascicularis (cynomolgus)); assay: flow cytometry on stimulated cynomolgus PBMC, % TIGIT+ gated on CD69+CD8+ T cells
[2] = molecular target: human TIGIT expressed on cells (human) (UniProt Q495A1); assay: flow cytometry on PBMC of healthy human donors, MFI TIGIT on gated TIGIT+CD8+ T cells
[3] = molecular target: human TIGIT expressed on cells (human) (UniProt Q495A1); assay: flow cytometry on Jurkat-hTIGIT, detected with anti-human Ig (Fc gamma)-PE
[4] = molecular target: human TIGIT expressed on cells (human) (UniProt Q495A1); assay: flow cytometry on Jurkat-hTIGIT
[5] = molecular target: human TIGIT expressed on cells (human) (UniProt Q495A1); assay: flow cytometry on PBMC of cancer patients, MFI TIGIT on gated TIGIT+CD8+ T cells
[6] = molecular target: human TIGIT expressed on cells (human) (UniProt Q495A1); assay: flow cytometry competition on Jurkat-hTIGIT: cells incubated with the antibody, washed, then CD155-His at 15 µg/ml, bound CD155 detected with anti-His-PE

The chains behind the UniProt entries cited, without tags or fusion partners. Residues count along the entry.
UniProt Q495A1, residues 22-244: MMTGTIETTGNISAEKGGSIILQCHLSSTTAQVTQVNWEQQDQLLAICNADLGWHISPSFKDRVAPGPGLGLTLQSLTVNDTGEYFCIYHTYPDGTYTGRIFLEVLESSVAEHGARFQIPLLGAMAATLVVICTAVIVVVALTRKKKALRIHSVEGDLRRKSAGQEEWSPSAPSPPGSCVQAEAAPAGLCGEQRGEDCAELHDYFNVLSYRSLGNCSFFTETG

binding [1]: binds
B1: anti-TIGIT antibody clone 29520 (IgG) (antibody, V domains shown)
VH: QVQLVESGGGLVQPGRSLRLSCAASGFTFRDYAMHWVRQAPGKGLEWVSGITWNSGLIGYADSVKGRFTISRDNAKNSLYLQMNSLRAEDTALYYCAKPVPRLRGLDVWGQGTMVTVSS
VL: DIQLTQSPSSVSASVGDRVTITCRASQGISSWLAWYQQKPGKAPKLLIYGASSLQSGVPSRFSGSGSGTDFTLTISSLQPEDFATYYCQQAFYLPWTFGGGTKVEIK

binding [1]: binds
B2: anti-TIGIT antibody clone 29527 (IgG) (antibody, V domains shown)
VH: QVQLVESGGGVVQPGRSLRLSCAASGFTFSSSYMHWVRQAPGKGLEWVAVIGADGSNKYYADSVEGRFTISRDNSKNTLYLQMNSLRAEDTALYYCAKPVPRRRGLDVWGQGTMVTVSS
VL: B1 VL

binding [2]: binds | binding [3]: binds | binding [4]: binds | binding [5]: binds | binding [6]: binds
B3: 313M32 (comparative anti-TIGIT antibody, human IgG1) (antibody, V domains shown)
VH: QVQLQESGPGLVKPSETLSLTCAVSGYSITSDYAWNWIRQPPGKGLEWIGYISYSGSTSYNPSLRSRVTISRDTSKNQFFLKLSSVTAADTAVYYCARRQVGLGFAYWGQGTLVTVSS
VL: DIQMTQSPSSLSASVGDRVTITCKASQDVSTAVAWYQQKPGKAPKLLIYSASYRYTGVPSRFSGSGSGTDFTFTISSLQPEDIATYYCQQHYSTPWTFG

From patent publication US20200407445A1
